These are yes or no findings as the source states them, for the method shown. Binding seen in cells or lysates may run through a third protein. These calls come from enrichment with a bait or labelling near it, and not all partners need be listed.
Biological target: Octamer-binding transcription factor-4 (Oct4) (UniProt Q01860)
Test: affinity purification with mass spectrometry

Amino acid sequences for entries named in this document (tags omitted).
UniProt Q01860: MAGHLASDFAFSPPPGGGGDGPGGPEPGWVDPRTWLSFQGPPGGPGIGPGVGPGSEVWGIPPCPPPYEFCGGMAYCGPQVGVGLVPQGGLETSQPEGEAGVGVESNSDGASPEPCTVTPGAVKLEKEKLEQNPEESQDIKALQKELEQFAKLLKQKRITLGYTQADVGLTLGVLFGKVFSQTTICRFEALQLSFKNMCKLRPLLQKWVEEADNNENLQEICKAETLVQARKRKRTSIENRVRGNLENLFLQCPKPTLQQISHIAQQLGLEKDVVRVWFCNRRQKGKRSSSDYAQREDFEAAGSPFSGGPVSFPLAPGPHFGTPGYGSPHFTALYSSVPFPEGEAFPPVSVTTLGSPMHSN
UniProt P12004: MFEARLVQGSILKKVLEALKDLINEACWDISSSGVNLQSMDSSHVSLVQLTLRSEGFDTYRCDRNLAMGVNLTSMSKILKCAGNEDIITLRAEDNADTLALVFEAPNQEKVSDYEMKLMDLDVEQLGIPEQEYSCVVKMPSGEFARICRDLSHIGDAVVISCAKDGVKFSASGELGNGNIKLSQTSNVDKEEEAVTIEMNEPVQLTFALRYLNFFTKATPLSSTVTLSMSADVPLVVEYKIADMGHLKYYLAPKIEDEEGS
UniProt P08670: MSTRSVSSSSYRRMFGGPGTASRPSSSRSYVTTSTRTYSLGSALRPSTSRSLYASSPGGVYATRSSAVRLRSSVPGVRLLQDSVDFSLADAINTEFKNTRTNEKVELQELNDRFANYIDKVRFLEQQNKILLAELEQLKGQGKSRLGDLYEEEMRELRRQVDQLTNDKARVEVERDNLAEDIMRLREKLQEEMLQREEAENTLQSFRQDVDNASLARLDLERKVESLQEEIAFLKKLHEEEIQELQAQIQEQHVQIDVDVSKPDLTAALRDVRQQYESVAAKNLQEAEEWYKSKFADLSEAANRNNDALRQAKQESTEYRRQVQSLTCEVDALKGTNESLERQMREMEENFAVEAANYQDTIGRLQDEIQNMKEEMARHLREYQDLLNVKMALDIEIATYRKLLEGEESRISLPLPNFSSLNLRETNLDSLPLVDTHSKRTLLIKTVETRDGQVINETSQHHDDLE

Substance | binding
PCNA (from UniProt P12004 1-261) | binds
Vimentin (from UniProt P08670 1-466) | binds

Source: paper doi:10.1101/2023.04.10.536212
